Literature values as cited in patent US20050009782A1, “Antiviral charged polymers that exhibit resistance to lysosomal degradation during kidney filtration and renal passage, compositions and methods of use thereof” (priority 2003, published 2005).
At least one compound was matched to its structure with a doubt left.

System: HIV
Conditions: listed virus = activity demonstrated

O=C(O)C1=CC(=C(c2ccc(O)c(C(=O)O)c2)c2ccc(O)c(C(=O)O)c2)C=CC1=O [Aurintricarboxylic acid]
In vitro activity: HIV
